Reference: patent US20260232634A1, “TREATMENT OF PEDIATRIC CANCERS USING GYLCOGEN SYNTHASE KINASE FORM B INHIBITORS” (Actuate Therapeutics Inc., priority 2023, published 2026)

Tested on: refractory malignancies
Assay: Phase 1/2 study of 9-ING-41 as a single agent or with chemotherapy in pediatric patients with refractory malignancies
Type: in vivo, human (pediatric patients)
Settings: pediatric patients on study

## Cn1cc(C2=C(c3coc4ccc(F)cc34)C(=O)NC2=O)c2cc3c(cc21)OCO3 [9-ING-41, 3-(5-Fluorobenzofuran-3-yl)-4-(5-methyl-5H-[1,3]dioxolo[4,5-f]indol-7-yl) pyrrole-2,5-dione]
  Median treatment duration: 40 days
  treatment duration, range: 1 to 126 days
